Experimental data from article PMC6364870.
No constants are given. Whether binding was seen depends on the method and setting. In cells and extracts the contact can be indirect. Some results given as binding are weak or reduced against the parent protein; the word gives no strength.

Amino acid sequences for entries named in this document (tags omitted).
UniProt O70133: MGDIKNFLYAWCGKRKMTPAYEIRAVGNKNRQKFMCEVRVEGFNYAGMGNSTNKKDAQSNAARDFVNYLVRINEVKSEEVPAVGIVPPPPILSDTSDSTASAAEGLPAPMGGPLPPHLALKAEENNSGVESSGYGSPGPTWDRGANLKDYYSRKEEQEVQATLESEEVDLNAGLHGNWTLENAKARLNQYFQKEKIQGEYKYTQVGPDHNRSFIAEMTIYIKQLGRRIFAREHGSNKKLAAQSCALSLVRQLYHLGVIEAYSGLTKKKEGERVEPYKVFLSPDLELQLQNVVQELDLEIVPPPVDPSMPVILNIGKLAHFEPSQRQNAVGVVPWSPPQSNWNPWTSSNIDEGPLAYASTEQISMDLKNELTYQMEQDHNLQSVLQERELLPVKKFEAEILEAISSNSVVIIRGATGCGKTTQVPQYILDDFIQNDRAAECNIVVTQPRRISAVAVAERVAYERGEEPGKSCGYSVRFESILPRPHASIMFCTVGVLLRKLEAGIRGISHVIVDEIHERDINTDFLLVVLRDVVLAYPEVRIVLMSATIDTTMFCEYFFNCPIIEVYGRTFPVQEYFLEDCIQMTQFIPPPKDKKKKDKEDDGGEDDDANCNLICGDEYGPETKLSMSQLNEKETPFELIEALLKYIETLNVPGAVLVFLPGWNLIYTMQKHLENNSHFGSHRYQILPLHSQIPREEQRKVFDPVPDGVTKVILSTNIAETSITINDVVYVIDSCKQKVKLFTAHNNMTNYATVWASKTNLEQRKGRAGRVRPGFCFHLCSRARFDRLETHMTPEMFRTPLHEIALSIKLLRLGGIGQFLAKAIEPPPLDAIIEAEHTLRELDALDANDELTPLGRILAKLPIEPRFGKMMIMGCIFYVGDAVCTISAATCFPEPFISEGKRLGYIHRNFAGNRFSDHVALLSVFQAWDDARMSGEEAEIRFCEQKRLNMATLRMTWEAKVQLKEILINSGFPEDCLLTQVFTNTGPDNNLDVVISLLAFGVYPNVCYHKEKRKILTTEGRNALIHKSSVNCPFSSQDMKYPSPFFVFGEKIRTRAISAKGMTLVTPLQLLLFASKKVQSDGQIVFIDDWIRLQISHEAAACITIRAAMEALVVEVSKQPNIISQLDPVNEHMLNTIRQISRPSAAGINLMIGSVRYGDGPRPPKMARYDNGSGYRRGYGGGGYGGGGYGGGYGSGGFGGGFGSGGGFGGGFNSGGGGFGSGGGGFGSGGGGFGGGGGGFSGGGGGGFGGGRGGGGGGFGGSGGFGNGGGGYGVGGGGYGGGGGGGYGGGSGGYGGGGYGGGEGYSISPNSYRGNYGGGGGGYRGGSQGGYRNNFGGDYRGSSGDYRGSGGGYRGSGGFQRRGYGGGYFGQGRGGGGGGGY
UniProt Q9Z204: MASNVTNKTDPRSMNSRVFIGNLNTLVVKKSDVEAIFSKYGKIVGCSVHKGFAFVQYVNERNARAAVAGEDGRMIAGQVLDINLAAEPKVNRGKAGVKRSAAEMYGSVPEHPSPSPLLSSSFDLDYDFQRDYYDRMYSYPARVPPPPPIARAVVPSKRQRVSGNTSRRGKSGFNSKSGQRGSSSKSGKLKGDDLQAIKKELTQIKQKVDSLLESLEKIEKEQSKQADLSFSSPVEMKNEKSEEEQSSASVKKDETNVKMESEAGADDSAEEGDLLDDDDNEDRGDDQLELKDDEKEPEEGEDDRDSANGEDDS
UniProt Q61464: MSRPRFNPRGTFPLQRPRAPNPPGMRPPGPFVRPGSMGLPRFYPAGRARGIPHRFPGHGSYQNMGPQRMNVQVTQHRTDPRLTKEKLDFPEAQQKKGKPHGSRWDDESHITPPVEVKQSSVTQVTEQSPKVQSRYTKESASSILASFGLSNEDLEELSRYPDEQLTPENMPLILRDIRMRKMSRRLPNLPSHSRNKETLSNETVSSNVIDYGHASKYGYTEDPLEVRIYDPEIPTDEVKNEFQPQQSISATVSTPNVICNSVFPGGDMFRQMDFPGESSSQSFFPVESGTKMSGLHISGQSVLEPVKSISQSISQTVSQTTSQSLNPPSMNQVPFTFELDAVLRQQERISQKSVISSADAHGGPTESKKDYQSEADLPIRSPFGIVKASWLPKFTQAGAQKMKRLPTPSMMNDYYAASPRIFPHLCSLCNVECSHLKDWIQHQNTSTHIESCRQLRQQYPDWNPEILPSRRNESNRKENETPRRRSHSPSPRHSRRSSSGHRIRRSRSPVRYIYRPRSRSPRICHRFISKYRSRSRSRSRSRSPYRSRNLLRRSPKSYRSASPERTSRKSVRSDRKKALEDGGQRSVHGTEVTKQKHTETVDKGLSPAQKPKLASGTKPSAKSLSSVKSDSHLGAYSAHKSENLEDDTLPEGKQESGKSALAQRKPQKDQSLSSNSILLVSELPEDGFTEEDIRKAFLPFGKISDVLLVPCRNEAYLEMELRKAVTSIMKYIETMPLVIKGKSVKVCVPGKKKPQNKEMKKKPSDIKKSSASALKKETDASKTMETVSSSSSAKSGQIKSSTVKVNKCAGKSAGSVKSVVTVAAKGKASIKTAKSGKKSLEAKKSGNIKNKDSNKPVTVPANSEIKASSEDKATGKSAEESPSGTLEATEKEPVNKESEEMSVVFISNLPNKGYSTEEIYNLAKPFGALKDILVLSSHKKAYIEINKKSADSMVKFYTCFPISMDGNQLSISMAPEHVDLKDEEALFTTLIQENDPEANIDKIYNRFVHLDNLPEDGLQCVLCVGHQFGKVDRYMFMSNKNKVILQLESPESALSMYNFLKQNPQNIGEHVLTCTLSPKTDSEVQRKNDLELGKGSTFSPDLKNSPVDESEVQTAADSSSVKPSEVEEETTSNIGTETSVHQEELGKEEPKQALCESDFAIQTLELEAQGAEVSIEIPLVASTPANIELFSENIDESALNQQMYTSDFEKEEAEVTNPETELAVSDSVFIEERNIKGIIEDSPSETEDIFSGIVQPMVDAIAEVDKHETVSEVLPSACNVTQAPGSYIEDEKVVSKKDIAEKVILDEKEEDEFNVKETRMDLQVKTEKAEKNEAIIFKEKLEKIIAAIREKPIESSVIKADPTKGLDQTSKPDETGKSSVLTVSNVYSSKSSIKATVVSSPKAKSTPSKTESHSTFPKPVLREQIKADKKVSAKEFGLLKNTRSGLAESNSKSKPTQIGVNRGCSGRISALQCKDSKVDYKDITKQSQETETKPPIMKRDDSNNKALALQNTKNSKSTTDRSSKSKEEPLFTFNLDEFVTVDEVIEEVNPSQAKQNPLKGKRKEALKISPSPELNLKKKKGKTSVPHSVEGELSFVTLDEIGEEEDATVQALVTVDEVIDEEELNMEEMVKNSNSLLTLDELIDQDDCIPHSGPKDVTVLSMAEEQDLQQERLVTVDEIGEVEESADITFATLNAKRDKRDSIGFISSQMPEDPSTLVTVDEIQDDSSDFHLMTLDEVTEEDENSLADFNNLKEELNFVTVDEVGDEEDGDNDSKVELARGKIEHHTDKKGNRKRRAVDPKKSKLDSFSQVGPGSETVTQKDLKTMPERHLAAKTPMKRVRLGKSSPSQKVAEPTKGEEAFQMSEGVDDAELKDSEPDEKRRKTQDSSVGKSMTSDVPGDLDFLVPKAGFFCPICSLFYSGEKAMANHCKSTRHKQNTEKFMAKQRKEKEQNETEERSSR
UniProt O09106: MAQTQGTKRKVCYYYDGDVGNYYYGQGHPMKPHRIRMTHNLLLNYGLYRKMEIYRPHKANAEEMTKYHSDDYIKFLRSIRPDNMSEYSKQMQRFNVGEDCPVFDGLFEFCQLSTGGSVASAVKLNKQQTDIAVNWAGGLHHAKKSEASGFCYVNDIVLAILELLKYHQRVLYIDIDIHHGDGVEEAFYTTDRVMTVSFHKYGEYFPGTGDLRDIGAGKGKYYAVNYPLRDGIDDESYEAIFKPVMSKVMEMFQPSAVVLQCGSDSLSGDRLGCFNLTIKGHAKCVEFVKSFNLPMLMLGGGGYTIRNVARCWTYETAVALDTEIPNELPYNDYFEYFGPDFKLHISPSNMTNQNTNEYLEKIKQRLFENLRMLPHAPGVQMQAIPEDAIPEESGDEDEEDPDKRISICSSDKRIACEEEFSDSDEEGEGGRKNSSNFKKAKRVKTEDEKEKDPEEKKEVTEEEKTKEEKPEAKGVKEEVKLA

T1: SATB2 (mouse (endogenous in cortex)) (UniProt Q8VI24)
T1 sequence: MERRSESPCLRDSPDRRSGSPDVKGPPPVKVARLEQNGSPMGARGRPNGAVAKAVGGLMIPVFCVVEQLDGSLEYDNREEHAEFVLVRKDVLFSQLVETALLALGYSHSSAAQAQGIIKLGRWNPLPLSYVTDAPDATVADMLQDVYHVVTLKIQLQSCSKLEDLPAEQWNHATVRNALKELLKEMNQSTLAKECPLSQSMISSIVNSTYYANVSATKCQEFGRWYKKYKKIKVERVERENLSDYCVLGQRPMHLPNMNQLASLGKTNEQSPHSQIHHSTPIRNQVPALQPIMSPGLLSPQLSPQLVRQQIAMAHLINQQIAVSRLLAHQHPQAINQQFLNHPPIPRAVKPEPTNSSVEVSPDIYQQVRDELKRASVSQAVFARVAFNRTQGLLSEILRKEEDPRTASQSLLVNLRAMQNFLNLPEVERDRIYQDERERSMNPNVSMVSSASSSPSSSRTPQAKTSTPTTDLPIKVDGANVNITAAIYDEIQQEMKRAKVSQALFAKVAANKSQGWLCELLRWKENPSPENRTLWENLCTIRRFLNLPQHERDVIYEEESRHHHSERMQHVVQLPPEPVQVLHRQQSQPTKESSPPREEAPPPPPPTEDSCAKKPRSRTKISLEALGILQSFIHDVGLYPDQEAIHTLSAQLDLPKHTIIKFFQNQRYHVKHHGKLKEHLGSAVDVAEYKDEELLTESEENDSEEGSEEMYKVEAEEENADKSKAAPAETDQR

B1: HNRNPL-like (protein, UniProt Q921F4 1-591)
chain: MSSSSSSSPKEETYEEDREFESQAKRLKTEEGEIVYSAEESENRQEATPQAGSDSDSGGGDGGDGDGGSGGGGDGEEGEGGEEGDEGDGDEGGSGGDEGGSGGGPRSMPLSTEGGGSHHKVSVSPVVHVRGLCESVVEADLVEALEKFGTICYVMMMPFKRQALVEFENIDSAKECVTFAADVPVYIAGQQAFFNYSTSKRITRPGNTDDPSGGNKVLLLSIQNPLYPITVDVLYTVCNPVGKVQRIVIFKRNGIQAMVEFESVLCAQKAKAALNGADIYAGCCTLKIEYARPTRLNVIRNDNDSWDYTKPYLGRRDRGKGRQRQAILGDHPSSFRHDGYGSHGPLLPLPSRYRMGSRDTPELVAYPLPQASSSYMHGGSPSGSVVMVSGLHQLKMNCSRVFNLFCLYGNIEKVKFMKTIPGTALVEMGDEYAVERAVTHLNNVKLFGKRLNVCVSKQHSVVPSQIFELEDGTSSYKDFAMSKNNRFTSAGQASKNIIQPPSCVLHYYNVPLCVTEETFTKLCNDHEVLPFIKYKVFDAKASAKTLSGLLEWKCKTDAVEALTALNHYQIRVPNGSNPYTLKLCFSTSSHL
B2: CHMP3 (protein, UniProt Q9CQ10 1-224)
chain: MGLFGKTQEKPPKELVNEWSLKIRKEMRVVDRQIRDIQREEEKVKRSVKDAAKKGQKEVCVVLAKEMIRSRKAVSKLYASKAHMNSVLMGMKNQLAVLRVAGSLQKSTEVMKAMQSLVKIPEIQATMRELSKEMMKAGIIEEMLEDTFESMDDQEEMEEAAEMEIDRILFEITAGALGKAPSKVTDALPEPEPAGAMAASEEGEEEEDEEDLEAMQSRLATLRS
B3: BAF (barrier-to-autointegration factor) (protein, UniProt O54962 1-89)
chain: MTTSQKHRDFVAEPMGEKPVGSLAGIGDVLSKRLEERGFDKAYVVLGQFLVLKKDEDLFREWLKDTCGANAKQSRDCFGCLREWCDAFL
B4: Heterogeneous nuclear ribonucleoprotein L (HNRNPL) (protein, UniProt Q8R081 1-586)
chain: MSRRLLPRAEKRRRRLEQRQQPDEQLRRAGAMVKMAAAGGGGGGGRYYGGGNEGGRAPKRLKTENAGDQHGGGGGGGSGAAGGGGGENYDDPHKTPASPVVHIRGLIDGVVEADLVEALQEFGPISYVVVMPKKRQALVEFEDVLGACNAVNYAADNQIYIAGHPAFVNYSTSQKISRPGDSDDSRSVNSVLLFTILNPIYSITTDVLYTICNPCGPVQRIVIFRKNGVQAMVEFDSVQSAQRAKASLNGADIYSGCCTLKIEYAKPTRLNVFKNDQDTWDYTNPNLSGQGDPGSNPNKRQRQPPLLGDHPAEYGGPHGGYHSHYHDEGYGPPPPHYEGRRMGPPVGGHRRGPSRYGPQYGHPPPPPPPPDYGPHADSPVLMVYGLDQSKMNCDRVFNVFCLYGNVEKVKFMKSKPGAAMVEMADGYAVDRAITHLNNNFMFGQKMNVCVSKQPAIMPGQSYGLEDGSCSYKDFSESRNNRFSTPEQAAKNRIQHPSNVLHFFNAPLEVTEENFFEICDELGVKRPTSVKVFSGKSERSSSGLLEWDSKSDALETLGFLNHYQMKNPNGPYPYTLKLCFSTAQHAS

Target: T1, SATB2 (mouse (endogenous in cortex))
Assay: co-IP; anti-SATB2 on protein G Dynabeads, 500 μg of cortical lysate of control and SATB2-deficient mice, overnight 4°C; immunoblot with antibodies against the partners

binding | Molecule
binds | ATP-dependent RNA helicase A (DHX9) (from UniProt O70133 1-1380)
binds | HNRNPC (from UniProt Q9Z204 1-313)
binds | ZNF638 (from UniProt Q61464 1-1960)
binds | histone deacetylase 1 (HDAC1) (from UniProt O09106 1-482)
binds | B1
binds | B2
binds | B3
binds | B4
